Values from PubChem BioAssay AID743454 (Peter MacCallum Cancer Centre, 2014)
Assay: 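Search for knock-downs that restore vorinostat killing in resistant colon cancer cells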 (primary screen). Cell system: human HCT116-VR colon cancer cells, selected for vorinostat resistance. Reagents: siRNA pool against human genes, 40 nM siRNA pool. Time to read-out: vorinostat for 24 h, read-out about 72 h after transfection. Conditions: vorinostat at 2.5 µM final. Detection: 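Cell viability by CellTiter-Fluor and caspase 3/7 activity by luminescence, each scaled to mock wells per plate, duplicates averaged, then robust z-scored over all plates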. Reading the numbers: viability robust z-score: higher = more viable cells than screen typical; caspase robust z-score: higher = more caspase 3/7 activity than screen typical. Call rule: 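Hits are knock-downs in viability class RV1/RV2 or caspase class CA1/CA2, excluding ones that killed cells in the no-drug cell-count arm; hits then retested with single siRNAs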.
This is one part, drawn at random, of about 18,000 reagents. 450 of all reagents (2.5%) count as active. 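Single biological run; no consistent viability z cut-off exists, so the class columns, not z-scores, define the calls.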 Entries without a mark were called inactive. Reagent sequences are not shown.

GRIA4 (GeneID 2893) gave viability hit class no change; caspase hit class no change; viability robust z-score 0.19; caspase robust z-score -0.36. Against EXOSC6 (GeneID 118460) the deposit lists viability hit class no change; caspase hit class no change; viability robust z-score -1.67; caspase robust z-score 3.22. PNLIPRP3 (GeneID 119548) showed viability hit class no change; caspase hit class no change; viability robust z-score -0.94; caspase robust z-score -0.84. With knock-down of DBI (GeneID 1622) the results were viability hit class no change; caspase hit class no change; viability robust z-score -1.64; caspase robust z-score -0.52. CPSF6 (GeneID 11052) showed viability hit class no change; caspase hit class no change; viability robust z-score -0.59; caspase robust z-score 0.94. With knock-down of GGTLC1 (GeneID 92086), the record shows viability hit class no change; caspase hit class no change; viability robust z-score 0.89; caspase robust z-score 0.78.

Silencing of ZNF774 (GeneID 342132) resulted in: viability hit class no change; caspase hit class no change; viability robust z-score -0.52; caspase robust z-score -1.18. NACA (GeneID 4666) showed viability hit class no change; caspase hit class no change; viability robust z-score -1.27; caspase robust z-score 1.21. Knock-down of ATP10D (GeneID 57205) came out at: viability hit class no change; caspase hit class no change; viability robust z-score -1.26; caspase robust z-score -1.03. NOL8 (GeneID 55035) gave viability hit class no change; caspase hit class no change; viability robust z-score -1.06; caspase robust z-score -0.91. Against MRPL13 (GeneID 28998), the values are viability hit class no change; caspase hit class no change; viability robust z-score 1.46; caspase robust z-score -1.08. For GRIN2A (GeneID 2903) the deposit lists viability hit class no change; caspase hit class no change; viability robust z-score 0.26; caspase robust z-score 1.2.

With knock-down of FLNA (GeneID 2316) the results were viability hit class no change; caspase hit class no change; viability robust z-score 0.6; caspase robust z-score 3.08. Silencing of MSRB2 (GeneID 22921) resulted in: viability hit class no change; caspase hit class no change; viability robust z-score 0.8; caspase robust z-score -0.22. With knock-down of VHLL (GeneID 391104) the results were viability hit class no change; caspase hit class no change; viability robust z-score 0.19; caspase robust z-score 0.48. Silencing of OGFOD1 (GeneID 55239) resulted in: viability hit class no change; caspase hit class no change; viability robust z-score -0.38; caspase robust z-score 0.16. Against HOMEZ (GeneID 57594) the deposit lists viability hit class no change; caspase hit class no change; viability robust z-score -0.6; caspase robust z-score 1.01. After knock-down of NMD3 (GeneID 51068), the screen gave viability hit class no change; caspase hit class no change; viability robust z-score -1.06; caspase robust z-score 0.18.

For NPEPPS (GeneID 9520), the entry reads viability hit class RV1 (reduced viability) (active); caspase hit class no change; viability robust z-score -3.07; caspase robust z-score -0.72. After knock-down of ARID3C (GeneID 138715), the record shows viability hit class no change; caspase hit class no change; viability robust z-score -0.58; caspase robust z-score -0.92. Knock-down of LGALS3BP (GeneID 3959) came out at: viability hit class no change; caspase hit class no change; viability robust z-score 0.89; caspase robust z-score 1.48.
